Values quoted from earlier work in patent publication US5206415A, “Tricyclic steroid analogs” (priority 1991, dated 1993).

Tested on: GABAA receptors
Details: cited from earlier work

## CC(=O)[C@H]1CC[C@H]2[C@@H]3CC[C@H]4C[C@H](O)CC[C@]4(C)[C@H]3C(=O)C[C@]12C [alphaxalone]
  direct opening of Cl^- channels in the absence of GABA: open Cl^- channels directly in the absence of GABA
